These are yes or no findings as the source states them, for the method shown. Some binding calls cover weakened binding; strength is not graded here.
What was measured:
HA-Ash-Parkin (C431A) [1] = molecular target: HA-Ash-Parkin (C431A) (UniProt O60260); experiment: condition: only basal conditions (DMSO, without valinomycin); Fluoppi (fluorescent foci of hAG-tagged and Ash-tagged partners in cells); HeLa cells coexpressing hAG-E2 and HA-Ash-Parkin (C431A), basal conditions (DMSO for 3 h, no valinomycin), fixed and immunostained
HA-Ash-Parkin (C431A) [2] = molecular target: HA-Ash-Parkin (C431A) (UniProt O60260); experiment: Fluoppi (fluorescent foci of hAG-tagged and Ash-tagged partners in cells); HeLa cells (no endogenous Parkin) coexpressing hAG-E2 and HA-Ash-Parkin (C431A), 10 μM valinomycin for 3 h, fixed and immunostained; foci on damaged mitochondria, colocalization of hAG with TOMM20 quantified

Chains of the proteins cited; added tags and fusions are not shown.
UniProt O00762: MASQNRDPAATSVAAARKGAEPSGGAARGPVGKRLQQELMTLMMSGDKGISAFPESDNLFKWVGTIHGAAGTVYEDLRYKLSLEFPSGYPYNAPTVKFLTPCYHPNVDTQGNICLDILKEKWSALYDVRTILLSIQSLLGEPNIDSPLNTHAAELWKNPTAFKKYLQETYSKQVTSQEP
UniProt Q712K3: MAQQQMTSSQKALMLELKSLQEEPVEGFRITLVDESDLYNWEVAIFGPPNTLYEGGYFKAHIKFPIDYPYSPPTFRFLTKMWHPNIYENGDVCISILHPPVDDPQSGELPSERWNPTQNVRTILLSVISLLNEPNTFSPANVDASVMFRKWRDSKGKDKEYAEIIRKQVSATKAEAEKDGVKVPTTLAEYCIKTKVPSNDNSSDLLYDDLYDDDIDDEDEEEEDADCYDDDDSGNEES

binding (HA-Ash-Parkin (C431A) [1]) | Substance | binding (HA-Ash-Parkin (C431A) [2])
no binding | hAG-UBE2C (from UniProt O00762 1-179) (enzyme) | binds
no binding | hAG-UBE2R2 (from UniProt Q712K3 1-238) (enzyme) | binds

From paper PMC9860496
